Source: the supplement of paper PMC8728848
Some of the results follow.

What was measured:
Experiment in all cases: glycan array binding signal (z-score within array); higher = stronger binding
Details in all cases: glycan notation: IUPAC condensed, linker removed
[1] = molecular target: Neu5Ac(a2-3)GalNAc
Method in brief: (§1)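 From the Consortium for Functional Glycomics database, 3228 arrays were curated, keeping only those whose protein sequence was available. Binding is given as a within-array Z-score averaged across arrays sharing a protein sequence and across linkers. Negative Z-scores can be read as non-binding.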

[2] = molecular target: Neu5Ac(a2-3)GalNAc(b1-4)GlcNAc
Method in brief: as §1

[3] = molecular target: Neu5Ac(a2-3)[GalNAc(b1-4)]Gal(b1-4)Glc
Method in brief: as §1

[4] = molecular target: Neu5Ac(a2-3)[GalNAc(b1-4)]Gal(b1-4)GlcNAc
Method in brief: as §1

[5] = molecular target: Neu5Ac(a2-3)[GalNAc(b1-4)]Gal(b1-4)GlcNAc(b1-3)GalNAc
Method in brief: as §1

[6] = molecular target: Neu5Ac(a2-3)[Neu5Ac(a2-6)]GalNAc
Method in brief: as §1

[7] = molecular target: Neu5Ac(a2-6)Gal
Method in brief: as §1

[8] = molecular target: Neu5Ac(a2-6)Gal(b1-3)GlcNAc(b1-3)[Gal(b1-4)GlcNAc(b1-6)]Gal(b1-4)Glc
Method in brief: as §1

[9] = molecular target: Neu5Ac(a2-6)Gal(b1-4)Glc
Method in brief: as §1

[10] = molecular target: Neu5Ac(a2-6)Gal(b1-4)GlcNAc
Method in brief: as §1

[11] = molecular target: Neu5Ac(a2-6)Gal(b1-4)GlcNAc(b1-2)Man
Method in brief: as §1

[12] = molecular target: Neu5Ac(a2-6)Gal(b1-4)GlcNAc(b1-2)Man(a1-3)Man(b1-4)GlcNAc(b1-4)GlcNAc
Method in brief: as §1

[13] = molecular target: Neu5Ac(a2-6)Gal(b1-4)GlcNAc(b1-2)Man(a1-3)[Gal(b1-4)GlcNAc(b1-2)Man(a1-6)]Man(b1-4)GlcNAc(b1-4)GlcNAc
Method in brief: as §1

[14] = molecular target: Neu5Ac(a2-6)Gal(b1-4)GlcNAc(b1-2)Man(a1-3)[GlcNAc(b1-2)Man(a1-6)]Man(b1-4)GlcNAc(b1-4)GlcNAc
Method in brief: as §1

[15] = molecular target: Neu5Ac(a2-6)Gal(b1-4)GlcNAc(b1-2)Man(a1-3)[GlcNAc(b1-4)][Neu5Ac(a2-6)Gal(b1-4)GlcNAc(b1-2)Man(a1-6)]Man(b1-4)GlcNAc(b1-4)GlcNAc
Method in brief: as §1

[16] = molecular target: Neu5Ac(a2-6)Gal(b1-4)GlcNAc(b1-2)Man(a1-3)[Man(a1-6)]Man(b1-4)GlcNAc(b1-4)GlcNAc
Method in brief: as §1

[17] = molecular target: Neu5Ac(a2-6)Gal(b1-4)GlcNAc(b1-2)Man(a1-3)[Neu5Ac(a2-3)Gal(b1-4)GlcNAc(b1-2)Man(a1-6)]Man(b1-4)GlcNAc(b1-4)GlcNAc
Method in brief: as §1

[18] = molecular target: Neu5Ac(a2-6)Gal(b1-4)GlcNAc(b1-2)Man(a1-3)[Neu5Ac(a2-6)Gal(b1-4)GlcNAc(b1-2)Man(a1-6)]Man(b1-4)GlcNAc(b1-4)GlcNAc
Method in brief: as §1

[19] = molecular target: Neu5Ac(a2-6)Gal(b1-4)GlcNAc(b1-2)Man(a1-3)[Neu5Ac(a2-6)Gal(b1-4)GlcNAc(b1-2)Man(a1-6)]Man(b1-4)GlcNAc(b1-4)[Fuc(a1-6)]GlcNAc
Method in brief: as §1

[20] = molecular target: Neu5Ac(a2-6)Gal(b1-4)GlcNAc(b1-2)Man(a1-6)Man(b1-4)GlcNAc(b1-4)GlcNAc
Method in brief: as §1

[21] = molecular target: Neu5Ac(a2-6)Gal(b1-4)GlcNAc(b1-2)Man(a1-6)[Gal(b1-4)GlcNAc(b1-2)Man(a1-3)]Man(b1-4)GlcNAc(b1-4)GlcNAc
Method in brief: as §1

[22] = molecular target: Neu5Ac(a2-6)Gal(b1-4)GlcNAc(b1-2)Man(a1-6)[GlcNAc(b1-2)Man(a1-3)]Man(b1-4)GlcNAc(b1-4)GlcNAc
Method in brief: as §1

[23] = molecular target: Neu5Ac(a2-6)Gal(b1-4)GlcNAc(b1-2)Man(a1-6)[Man(a1-3)]Man(b1-4)GlcNAc(b1-4)GlcNAc
Method in brief: as §1

[24] = molecular target: Neu5Ac(a2-6)Gal(b1-4)GlcNAc(b1-2)[Neu5Ac(a2-6)Gal(b1-4)GlcNAc(b1-4)]Man(a1-3)[GlcNAc(b1-4)][Neu5Ac(a2-6)Gal(b1-4)GlcNAc(b1-2)[Neu5Ac(a2-6)Gal(b1-4)GlcNAc(b1-6)]Man(a1-6)]Man(b1-4)GlcNAc(b1-4)GlcNAc
Method in brief: as §1

[25] = molecular target: Neu5Ac(a2-6)Gal(b1-4)GlcNAc(b1-2)[Neu5Ac(a2-6)Gal(b1-4)GlcNAc(b1-4)]Man(a1-3)[GlcNAc(b1-4)][Neu5Ac(a2-6)Gal(b1-4)GlcNAc(b1-4)Man(a1-6)]Man(b1-4)GlcNAc(b1-4)GlcNAc
Method in brief: as §1

[26] = molecular target: Neu5Ac(a2-6)Gal(b1-4)GlcNAc(b1-2)[Neu5Ac(a2-6)Gal(b1-4)GlcNAc(b1-6)]Man(a1-6)[Neu5Ac(a2-6)Gal(b1-4)GlcNAc(b1-2)Man(a1-3)][GlcNAc(b1-4)]Man(b1-4)GlcNAc(b1-4)GlcNAc
Method in brief: as §1

[27] = molecular target: Neu5Ac(a2-6)Gal(b1-4)GlcNAc(b1-3)Gal(b1-3)GlcNAc
Method in brief: as §1

[28] = molecular target: Neu5Ac(a2-6)Gal(b1-4)GlcNAc(b1-3)Gal(b1-4)GlcNAc
Method in brief: as §1

[29] = molecular target: Neu5Ac(a2-6)Gal(b1-4)GlcNAc(b1-3)Gal(b1-4)GlcNAc(b1-2)Man(a1-3)[Neu5Ac(a2-6)Gal(b1-4)GlcNAc(b1-3)Gal(b1-4)GlcNAc(b1-2)Man(a1-6)]GalNAc
Method in brief: as §1

[30] = molecular target: Neu5Ac(a2-6)Gal(b1-4)GlcNAc(b1-3)Gal(b1-4)GlcNAc(b1-3)Gal(b1-4)GlcNAc
Method in brief: as §1

[31] = molecular target: Neu5Ac(a2-6)Gal(b1-4)GlcNAc(b1-3)Gal(b1-4)GlcNAc(b1-3)Gal(b1-4)GlcNAc(b1-2)Man(a1-3)[Neu5Ac(a2-6)Gal(b1-4)GlcNAc(b1-3)Gal(b1-4)GlcNAc(b1-3)Gal(b1-4)GlcNAc(b1-2)Man(a1-6)]GalNAc
Method in brief: as §1

[32] = molecular target: Neu5Ac(a2-6)Gal(b1-4)GlcNAc(b1-3)Gal(b1-4)GlcNAc(b1-3)GalNAc
Method in brief: as §1

[33] = molecular target: Neu5Ac(a2-6)Gal(b1-4)GlcNAc(b1-3)Gal(b1-4)GlcNAc(b1-3)[Neu5Ac(a2-6)Gal(b1-4)GlcNAc(b1-3)Gal(b1-4)GlcNAc(b1-6)]GalNAc
Method in brief: as §1

[34] = molecular target: Neu5Ac(a2-6)Gal(b1-4)GlcNAc(b1-3)Gal(b1-4)GlcNAc(b1-6)[Gal(b1-3)]GalNAc
Method in brief: as §1

[35] = molecular target: Neu5Ac(a2-6)Gal(b1-4)GlcNAc(b1-3)Gal(b1-4)[Fuc(a1-3)]GlcNAc(b1-3)Gal(b1-4)[Fuc(a1-3)]GlcNAc
Method in brief: as §1

[36] = molecular target: Neu5Ac(a2-6)Gal(b1-4)GlcNAc(b1-3)GalNAc
Method in brief: as §1

[37] = molecular target: Neu5Ac(a2-6)Gal(b1-4)GlcNAc(b1-3)[Neu5Ac(a2-6)Gal(b1-4)GlcNAc(b1-6)]GalNAc
Method in brief: as §1

B1: his-Lectin-24A (Drosophila melanogaster) (protein)
chain: MFRLSVLVLNLLLVSHEFSAGTAKIEIQPLPALCNGYCFPTLKPVMEYVAIHQDKWNTCTEILANEARKDQIQLNIQLDALKADVSNIKASQLSKDEKLDRMEREQFAMHESLETINRYLTVKLDRTKLQLEAIKNTMDYMKAQMDGYFSAINGVQCLQPGFEKIGDRYFYIEEDVELNWLDAQAKCRRMGGHLASIKTKQEFDAIVEKLDDSKSYFLGVNENTKTGDFVSAASGKSCLYHEWGPGEPHHNNDQERCVSILRKLMHVGNCTYEKRFICQYGI
- glycan array binding signal (z-score) [1]: -1.32
- glycan array binding signal (z-score) [2]: 1.8
- glycan array binding signal (z-score) [3]: -0.19
- glycan array binding signal (z-score) [4]: 0.42
- glycan array binding signal (z-score) [5]: 0.615
- glycan array binding signal (z-score) [6]: 0.765
- glycan array binding signal (z-score) [7]: -0.598
- glycan array binding signal (z-score) [8]: -1.67
- glycan array binding signal (z-score) [9]: -0.832
- glycan array binding signal (z-score) [10]: -0.848
- glycan array binding signal (z-score) [11]: -0.44
- glycan array binding signal (z-score) [12]: -0.861
- glycan array binding signal (z-score) [13]: -0.519
- glycan array binding signal (z-score) [14]: 1.13
- glycan array binding signal (z-score) [15]: -1.2
- glycan array binding signal (z-score) [16]: -0.737
- glycan array binding signal (z-score) [17]: -0.316
- glycan array binding signal (z-score) [18]: 0.078
- glycan array binding signal (z-score) [19]: 1.74
- glycan array binding signal (z-score) [20]: 1.27
- glycan array binding signal (z-score) [21]: -1.12
- glycan array binding signal (z-score) [22]: -0.546
- glycan array binding signal (z-score) [23]: 1.07
- glycan array binding signal (z-score) [24]: -0.371
- glycan array binding signal (z-score) [25]: -0.73
- glycan array binding signal (z-score) [26]: -2.86
- glycan array binding signal (z-score) [27]: 0.708
- glycan array binding signal (z-score) [28]: -1.46
- glycan array binding signal (z-score) [29]: 1.05
- glycan array binding signal (z-score) [30]: 0.198
- glycan array binding signal (z-score) [31]: 0.167
- glycan array binding signal (z-score) [32]: -1.61
- glycan array binding signal (z-score) [33]: 0.118
- glycan array binding signal (z-score) [34]: 0.779
- glycan array binding signal (z-score) [35]: 0.826
- glycan array binding signal (z-score) [36]: -1.68
- glycan array binding signal (z-score) [37]: 0.73
